Experimental data: PubChem BioAssay AID1259308 (NCATS, 2017)

Assay: 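Knock-downs that increase output of a recombinant reporter protein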 (primary screen)
Cell system: human HEK293 embryonic kidney cells stably expressing firefly luciferase (HEK-CMV-Luc2-Hygro)
Reagents: single siRNA against human genes, 0.8 pmol siRNA per well
Timing: 72 h
Measured: 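Luciferase light (ONE-Glo) measured on one replicate plate set and viability (CellTiter-Glo) on the other, scaled to a negative control siRNA, with robust z-scores and luciferase per cell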
Reading the numbers: total luciferase, z-score: higher = more reporter protein produced
Active means: 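An siRNA counts as active if its total luciferase robust z-score exceeds 3; genes with two or more such siRNAs out of three were retested with fresh siRNAs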
Calls: active = raised luciferase; inactive = no rise
In all, the deposit lists about 59,000 reagents; below is a random part of them. About 1,510 of them (2.6%) were called active. 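Calls use total luciferase alone and ignore viability, so some active siRNAs may act by altering cell number.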 Unmarked entries are inactive. Reagents against one gene are numbered here. Not all columns of the deposit are shown. No sequences are given here.

target gene	siRNA no.	total luciferase, z-score
FAM89A (family with sequence similarity 89 member A)	1	0.656
FAM89A (family with sequence similarity 89 member A)	2	0.621
FAM89A (family with sequence similarity 89 member A)	3	-1.73
EZHIP (EZH inhibitory protein)	1	2.35
EZHIP (EZH inhibitory protein)	2	1.84
EZHIP (EZH inhibitory protein)	3	1.83
DDR2 (discoidin domain receptor tyrosine kinase 2)	1	0.134
DDR2 (discoidin domain receptor tyrosine kinase 2)	2	-0.556
DDR2 (discoidin domain receptor tyrosine kinase 2)	3	-0.129
LSM1 (LSM1 homolog, mRNA degradation associated)	1	0.437
LSM1 (LSM1 homolog, mRNA degradation associated)	2	0.229
LSM1 (LSM1 homolog, mRNA degradation associated)	3	0.29
SRSF4 (serine and arginine rich splicing factor 4)	1	0.517
SRSF4 (serine and arginine rich splicing factor 4)	2	-0.632
SRSF4 (serine and arginine rich splicing factor 4)	3	-0.365
STIMATE (STIM activating enhancer)	1	-0.0707
STIMATE (STIM activating enhancer)	2	0.254
STIMATE (STIM activating enhancer)	3	-0.448
BAZ1A (bromodomain adjacent to zinc finger domain 1A)	1	-0.265
BAZ1A (bromodomain adjacent to zinc finger domain 1A)	2	-0.00876
BAZ1A (bromodomain adjacent to zinc finger domain 1A)	3	-0.348
DCANP1 (dendritic cell associated nuclear protein 1)	1	-0.216
DCANP1 (dendritic cell associated nuclear protein 1)	2	-0.449
DCANP1 (dendritic cell associated nuclear protein 1)	3	1.13
ARHGEF10 (Rho guanine nucleotide exchange factor 10)	1	2.52
ARHGEF10 (Rho guanine nucleotide exchange factor 10)	2	-0.538
ARHGEF10 (Rho guanine nucleotide exchange factor 10)	3	-0.796
APOOL (apolipoprotein O like)	1	0.975
APOOL (apolipoprotein O like)	2	-0.177
APOOL (apolipoprotein O like)	3	-0.662
PIGA (phosphatidylinositol glycan anchor biosynthesis class A)	1	1
PIGA (phosphatidylinositol glycan anchor biosynthesis class A)	2	-1.19
PIGA (phosphatidylinositol glycan anchor biosynthesis class A)	3	0.436

Next part; the last 7 above are carried over.
target gene	siRNA no.	total luciferase, z-score
ARHGEF10 (Rho guanine nucleotide exchange factor 10)	3	-0.796
APOOL (apolipoprotein O like)	1	0.975
APOOL (apolipoprotein O like)	2	-0.177
APOOL (apolipoprotein O like)	3	-0.662
PIGA (phosphatidylinositol glycan anchor biosynthesis class A)	1	1
PIGA (phosphatidylinositol glycan anchor biosynthesis class A)	2	-1.19
PIGA (phosphatidylinositol glycan anchor biosynthesis class A)	3	0.436
SLCO1B1	1	-0.173
SLCO1B1	2	-0.352
SLCO1B1	3	-1.03
RNASE1 (ribonuclease A family member 1, pancreatic)	1	0.537
RNASE1 (ribonuclease A family member 1, pancreatic)	2	2.33
RNASE1 (ribonuclease A family member 1, pancreatic)	3	1.69
FAM180A (family with sequence similarity 180 member A)	1	-1.42
FAM180A (family with sequence similarity 180 member A)	2	-0.131
FAM180A (family with sequence similarity 180 member A)	3	1.76
XKR3 (XK related 3)	1	-0.981
XKR3 (XK related 3)	2	-0.717
XKR3 (XK related 3)	3	-2.14
RPS6KB2 (ribosomal protein S6 kinase B2)	1	-0.124
RPS6KB2 (ribosomal protein S6 kinase B2)	2	0.737
RPS6KB2 (ribosomal protein S6 kinase B2)	3	-0.673
TMEM38B (transmembrane protein 38B)	1	1.46
TMEM38B (transmembrane protein 38B)	2	0.215
TMEM38B (transmembrane protein 38B)	3	-0.598
TIPE2 (TNF alpha induced protein 8 like 2)	1	2
TIPE2 (TNF alpha induced protein 8 like 2)	2	0.15
TIPE2 (TNF alpha induced protein 8 like 2)	3	-0.805
NINJ2 (ninjurin 2)	1	-1.24
NINJ2 (ninjurin 2)	2	-0.347
NINJ2 (ninjurin 2)	3	1.42
